The subject of experiment [1] is ReNCell VM. Put plainly: neuronal differentiation score (DCX+ cell fraction vs untreated, manual image score) (score (-3 to 3)); higher = more neuronal differentiation. To be noted: 2 uM, 2 weeks.
Experiment [2] relates to ReNCell VM. Put plainly: dopaminergic neuron differentiation score (TH+ cell fraction vs untreated, manual image score) (score (0 to 3)); higher = more TH+ dopaminergic neuron differentiation. To be noted: 2 uM, 4 weeks, BDNF 10 ng/ml + GDNF 10 ng/ml.

Molecules are shown by their SMILES. Counter-ions that a name gives are not always drawn. Some of the results follow. Repeats in this data set agree poorly, so a single value says little.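 Human fetal ventral-midbrain neural progenitor line ReNCell VM, differentiated without mitogens. Images stained for doublecortin (early neurons) or tyrosine hydroxylase (dopaminergic neurons) were scored by blinded raters against untreated wells (0 = no change). Repeats and both raters were averaged, and compounds averaging 2 or higher were picked as hits for retesting.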

Regarding `COc1ccc(C2c3cc(OC)c(OC)cc3CC3=c4cc(OC)c(OC)cc4=CCN32)cc1OC` (stereo not drawn), the neuronal differentiation score in the experiment with ReNCell VM [1] (library: Natural) is inactive: 0. Besides, in the experiment with ReNCell VM [2] (library: Natural), the “dopaminergic neuron differentiation score” value was inactive: 0.

Regarding `CC(C)(O)c1ccccc1CC[C@@H](SCC1(CC(=O)O)CC1)c1cccc(/C=C/c2ccc3ccc(Cl)cc3n2)c1`, the neuronal differentiation score in the experiment with ReNCell VM [1] (library: Spectrum) was inactive: 0. Moreover, the “dopaminergic neuron differentiation score” value in the experiment with ReNCell VM [2] (library: Spectrum) is inactive: 0.

For `OCC(O)C(O)C(O)CO` (stereo not drawn), the neuronal differentiation score with ReNCell VM [1] (library: Spectrum) was inactive: 0. For the same compound, the “dopaminergic neuron differentiation score” value in the experiment on ReNCell VM [2] (library: Spectrum) is inactive: 0.

Turning to `CN(C)CC[C@@H](c1ccc(Cl)cc1)c1ccccn1`, in the experiment on ReNCell VM [1] (library: Spectrum), the neuronal differentiation score is inactive: 0. Also, in the experiment on ReNCell VM [2] (library: Spectrum), the “dopaminergic neuron differentiation score” value was inactive: 0.

As for `Nc1ccc(S(=O)(=O)Nc2ncccn2)cc1` [Sulfadiazine], the neuronal differentiation score in the experiment with ReNCell VM [1] (library: Prestwick) was inactive: 0. For the same compound, in the experiment with ReNCell VM [2] (library: Prestwick), the “dopaminergic neuron differentiation score” value is inactive: 0.

For `OCc1ccccc1O[C@@H]1O[C@H](CO)[C@@H](O)[C@H](O)[C@H]1O`, the neuronal differentiation score in the experiment on ReNCell VM [1] (library: Spectrum) was inactive: 0. Moreover, in the experiment on ReNCell VM [2] (library: Spectrum), the “dopaminergic neuron differentiation score” value is inactive: 0.

As to `O=C(c1ccc(F)cc1)C1CCN(CCn2c(=O)[nH]c3ccccc3c2=O)CC1`, the neuronal differentiation score in the experiment on ReNCell VM [1] (library: Spectrum) is inactive: 0. In the experiment with ReNCell VM [2] (library: Spectrum), the “dopaminergic neuron differentiation score” value is inactive: 0.

Regarding `CC1(C)CC[C@]2(C(=O)O)CC[C@]3(C)C(=CC[C@@H]4[C@@]5(C)CC[C@H](O)C(C)(C)[C@@H]5[C@H](O)C[C@]43C)[C@@H]2C1` [sumaresinolic acid], in the experiment with ReNCell VM [1] (library: Natural), the neuronal differentiation score is inactive: 0. In addition, the “dopaminergic neuron differentiation score” value in the experiment on ReNCell VM [2] (library: Natural) was inactive: 0.

On to `Cn1c2c(c(=O)c3ccccc31)CC(O)C(C)(C)O2` (stereo not drawn) [ribalinine], for which, in the experiment with ReNCell VM [1] (library: Natural), the neuronal differentiation score was inactive: -1. The “dopaminergic neuron differentiation score” value with ReNCell VM [2] (library: Natural) was inactive: 0.

In the case of `O=C(/C=C/c1ccc(O)cc1)c1ccc(O)cc1O` [2,4,4-trihydroxychalcone], in the experiment on ReNCell VM [1] (library: Natural), the neuronal differentiation score was inactive: 0. For the same compound, the “dopaminergic neuron differentiation score” value in the experiment on ReNCell VM [2] (library: Natural) is inactive: 0.

As to `Cc1nc2c(c(=O)[nH]1)CSCC2`, the neuronal differentiation score with ReNCell VM [1] (library: Tocriscreen) is inactive: 0. The “dopaminergic neuron differentiation score” value with ReNCell VM [2] (library: Tocriscreen) was inactive: 0.

In the case of `C/C=C1\C(=O)C[C@H]2[C@@H]3CCC4=CC(=O)CC[C@]4(C)[C@H]3CC[C@]12C` [(Z)-pregna-4,17(20)-diene-3,16-dione], in the experiment with ReNCell VM [1] (library: Natural), the neuronal differentiation score is inactive: -1. For the same compound, the “dopaminergic neuron differentiation score” value in the experiment on ReNCell VM [2] (library: Natural) is inactive: 0.

In the case of `CC1(C)Oc2ccc3ccc(=O)oc3c2CC1=O` [8,8-dimethyl-10h-pyrano[2,3-f]chromene-2,9-dione], the neuronal differentiation score in the experiment on ReNCell VM [1] (library: Natural) is inactive: 0. In addition, in the experiment with ReNCell VM [2] (library: Natural), the “dopaminergic neuron differentiation score” value is inactive: 0.

As for `CN(C)c1nc(N)c(C(=O)Nc2cccnc2)nc1Cl` [ACDPP hydrochloride], the neuronal differentiation score in the experiment with ReNCell VM [1] (library: Tocriscreen) was inactive: 0. For the same compound, in the experiment on ReNCell VM [2] (library: Tocriscreen), the “dopaminergic neuron differentiation score” value was inactive: 0.

As for `COc1cc(CNC(=O)CCCC/C=C/C(C)C)ccc1O` [(E)-Capsaicin], the neuronal differentiation score in the experiment with ReNCell VM [1] (library: Tocriscreen) was inactive: 0. Moreover, in the experiment on ReNCell VM [2] (library: Tocriscreen), the “dopaminergic neuron differentiation score” value is inactive: 0.

Consider `O=Nc1c(-c2c(O)[nH]c3ccccc23)[nH]c2ccccc12` [Indirubin-3'-oxime], for which the neuronal differentiation score in the experiment with ReNCell VM [1] (library: Tocriscreen) is active: 3. The “dopaminergic neuron differentiation score” value with ReNCell VM [2] (library: Tocriscreen) was inactive: 0.

Consider `CC1(C)NC(=O)N(c2ccc([N+](=O)[O-])c(C(F)(F)F)c2)C1=O`, for which, in the experiment with ReNCell VM [1] (library: Spectrum), the neuronal differentiation score is inactive: 0. In addition, in the experiment with ReNCell VM [2] (library: Spectrum), the “dopaminergic neuron differentiation score” value is inactive: 0.

For the compound `C[C@@H](NCc1cc(Br)cc2[nH]c(=O)c(=O)[nH]c12)P(=O)(O)O`, the neuronal differentiation score in the experiment on ReNCell VM [1] (library: Tocriscreen) is inactive: 0. The “dopaminergic neuron differentiation score” value in the experiment on ReNCell VM [2] (library: Tocriscreen) was inactive: 0.

Consider `C=CCOC(Cn1ccnc1)c1ccc(Cl)cc1Cl` (stereo not drawn) [Enilconazole], for which, in the experiment with ReNCell VM [1] (library: Prestwick), the neuronal differentiation score was inactive: 0. In the experiment on ReNCell VM [2] (library: Prestwick), the “dopaminergic neuron differentiation score” value is inactive: 1.

On to `CC(=O)OCC(=O)[C@@]1(O)CC[C@H]2[C@@H]3CCC4=CC(=O)CC[C@]4(C)[C@H]3C(=O)C[C@@]21C`, for which the neuronal differentiation score in the experiment on ReNCell VM [1] (library: Spectrum) was inactive: 0. For the same compound, the “dopaminergic neuron differentiation score” value in the experiment with ReNCell VM [2] (library: Spectrum) was inactive: 1.

In the case of `CC(CNC1CCCCC1)OC(=O)c1ccccc1` (stereo not drawn) [Hexylcaine hydrochloride], in the experiment on ReNCell VM [1] (library: Prestwick), the neuronal differentiation score is inactive: 0. The “dopaminergic neuron differentiation score” value with ReNCell VM [2] (library: Prestwick) was inactive: 0.

On to `CC[C@H]1OC(=O)[C@H](C)[C@@H](O[C@H]2C[C@@](C)(OC)[C@@H](O)[C@H](C)O2)[C@H](C)[C@@H](O[C@@H]2O[C@H](C)C[C@H](N(C)C)[C@H]2O)[C@](C)(O)C[C@@H](C)CN(C)[C@H](C)[C@@H](O)[C@]1(C)O`, for which the neuronal differentiation score in the experiment on ReNCell VM [1] (library: Spectrum) is inactive: 0. The “dopaminergic neuron differentiation score” value in the experiment with ReNCell VM [2] (library: Spectrum) was inactive: 0.

With `O=C1C=CC(=C(c2ccc(O)cc2)c2ccc(O)cc2)C=C1`, the neuronal differentiation score in the experiment with ReNCell VM [1] (library: Spectrum) is inactive: 0. Moreover, the “dopaminergic neuron differentiation score” value in the experiment with ReNCell VM [2] (library: Spectrum) is inactive: 0.

As for `CCCc1ncc(C[n+]2ccccc2C)c(N)n1` [Amprolium hydrochloride], the neuronal differentiation score in the experiment with ReNCell VM [1] (library: Prestwick) is inactive: 0. Further, the “dopaminergic neuron differentiation score” value with ReNCell VM [2] (library: Prestwick) was inactive: 1.

With `COc1ccccc1OCC(O)CN1CCN(CC(=O)Nc2c(C)cccc2C)CC1` (stereo not drawn), the neuronal differentiation score with ReNCell VM [1] (library: Spectrum) is inactive: 0. For the same compound, in the experiment with ReNCell VM [2] (library: Spectrum), the “dopaminergic neuron differentiation score” value was inactive: 0.

Take `C=CCNC(N)=S`: in the experiment on ReNCell VM [1] (library: Spectrum), the neuronal differentiation score is inactive: 0. Further, in the experiment with ReNCell VM [2] (library: Spectrum), the “dopaminergic neuron differentiation score” value is inactive: 0.

With `c1cnc(N2CCN(Cc3ccc4c(c3)OCO4)CC2)nc1` [Piribedil maleate], the neuronal differentiation score in the experiment on ReNCell VM [1] (library: LOPAC) is inactive: 1. In the experiment on ReNCell VM [2] (library: LOPAC), the “dopaminergic neuron differentiation score” value is inactive: 0.

Take `N[C@@H](CSC(c1ccccc1)(c1ccccc1)c1ccccc1)C(=O)O` [S-Trityl-L-cysteine]: the neuronal differentiation score in the experiment on ReNCell VM [1] (library: Tocriscreen) was inactive: 0. For the same compound, the “dopaminergic neuron differentiation score” value with ReNCell VM [2] (library: Tocriscreen) is inactive: 0.

`CN(C)CCC[C@@]1(c2ccc(F)cc2)OCc2cc(C#N)ccc21` [Escitalopram]: in the experiment on ReNCell VM [1] (library: Prestwick), the neuronal differentiation score is inactive: 0. The “dopaminergic neuron differentiation score” value in the experiment on ReNCell VM [2] (library: Prestwick) was inactive: 0.

For `COc1cc2c(cc1OC)C(c1ccccc1)=NCC2` [6,7-dimethoxy-1-phenyl-3,4-dihydro-isoquinoline], in the experiment with ReNCell VM [1] (library: Natural), the neuronal differentiation score was inactive: 0. The “dopaminergic neuron differentiation score” value with ReNCell VM [2] (library: Natural) is inactive: 0.

`Cn1cnnc1Sc1c([N+](=O)[O-])ncn1C`: the neuronal differentiation score with ReNCell VM [1] (library: Tocriscreen) was inactive: 0. Besides, in the experiment on ReNCell VM [2] (library: Tocriscreen), the “dopaminergic neuron differentiation score” value was inactive: 0.

As for `COc1cccc(OC)c1C(=O)N[C@@H]1C(=O)N2[C@@H]1SC(C)(C)[C@@H]2C(=O)O`, in the experiment on ReNCell VM [1] (library: Spectrum), the neuronal differentiation score is active: 3. In addition, the “dopaminergic neuron differentiation score” value in the experiment on ReNCell VM [2] (library: Spectrum) was inactive: 0.

Turning to `C=C1c2c(Cl)ccc(O)c2C(=O)C2=C(O)[C@]3(O)C(=O)C(C(N)=O)=C(O)[C@@H](N(C)C)[C@@H]3[C@@H](O)[C@H]12.O=C(O)c1cc(S(=O)(=O)O)ccc1O`, the neuronal differentiation score in the experiment with ReNCell VM [1] (library: Spectrum) was active: 3. For the same compound, the “dopaminergic neuron differentiation score” value in the experiment on ReNCell VM [2] (library: Spectrum) is inactive: 0.

`O=C1c2ccccc2C(=O)C1c1ccc(Cl)cc1`: in the experiment on ReNCell VM [1] (library: Spectrum), the neuronal differentiation score was inactive: 0. In the experiment with ReNCell VM [2] (library: Spectrum), the “dopaminergic neuron differentiation score” value is inactive: 0.

For the origin of these results see the supplement of paper PMC4635364.
